PubChem BioAssay AID504786, Drosophila RNAi Screening Center, 2011

Aim: 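Fly genes required for HIF-dependent transcription when hypoxia is mimicked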 (primary screen)
Cell system: Drosophila S2 cells with a stable HIF luciferase reporter
Reagent: long dsRNA against Drosophila genes, about 0.2 µg dsRNA per well of a 384-well plate
Duration: three days of knock-down, then 20 h of DFO before reading
Conditions: desferrioxamine (DFO) at 100 µM, an iron chelator that mimics hypoxia, for 20 h
Read-out: 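Firefly luciferase driven by the mouse ldh-a hypoxia-response element, measured after 20 h of 100 µM DFO; z-scores per plate, higher means more signal lost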
Scale: z-score: higher = stronger loss of HIF reporter signal
The deposit covers about 21,000 reagents; below is an unselected part of those that have a named target and a result. 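Primary screen; positive scores mean lost reporter signal, so the sign may be inverted from the usual convention.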 Names joined by + are all predicted targets of the reagent. Not all columns of the deposit are shown.

z-score, replicate 1, by target gene and reagent
Abca3: DRSC20546 0.1
Iswi: DRSC07446 1.8
Nmdmc: DRSC16760 -0.3
CR31824: DRSC01517 0
mod(mdg4): DRSC13474 0.4; DRSC13475 0.3; DRSC13478 0; DRSC13479 -0.1; DRSC15042 0.1; DRSC17000 0.2
CG18467: DRSC06758 -0.3
Gdap1: DRSC10437 -0.2
CG5968: DRSC02916 1.5
CG2321: DRSC15439 -0.3
lqfR: DRSC14703 0; DRSC14704 1.3
Mct1: DRSC18681 -0.3
nenya: DRSC13838 0
CG31810: DRSC01560 -0.6
CG32237: DRSC08312 -0.4; DRSC08315 -0.4
Orai: DRSC05684 -0.5
GluRIIC: DRSC00642 -0.3
CG34327: DRSC19517 0
aqz: DRSC16570 -0.3
Pif1A: DRSC12708 -0.4; DRSC14383 0.1
Mnt: DRSC17894 0.3; DRSC18480 -0.4
Stip1: DRSC00756 -0.2
CG9801: DRSC16568 -0.4
stau: DRSC07698 -0.2
Rb97D: DRSC16815 -0.4
HemK2 + Snapin: DRSC00736 -0.5; DRSC00737 -0.2
CG1671: DRSC06617 -0.2
Pi4KIIalpha: DRSC12322 -0.3; DRSC12323 -0.3
CG14764: DRSC05072 0.2; DRSC06498 -0.2; DRSC06844 -0.3
Ugt35C1: DRSC16080 -0.2
CG13928: DRSC08397 -0.2
CG12129: DRSC06105 -0.3
CG4645: DRSC19907 -0.3
gcm: DRSC03536 -0.3
CG6678: DRSC16092 -0.3
Jon99Fii + Jon99Cii + Jon99Ciii + 1 more: DRSC15298 -0.5
tex: DRSC16517 0.1
Rpn11: DRSC03422 7.2
CG1213: DRSC12191 0.3
CG11581: DRSC19407 -0.2
mdlc: DRSC15690 -0.1
TfIIB: DRSC03454 0.2
Lam: DRSC03359 0.2
CG33252: DRSC19162 0.1

Laid out differently: results already given.
Mnt [DRSC18480]
- z-score, replicate 1: -0.4

Stip1 [DRSC00756]
- z-score, replicate 1: -0.2
